About 2,100 (0.66%) of roughly 320,000 compounds were called active. Inconclusive means that the source gave no clear call. Such entries were picked first, then a sample of the others. The call rests on the fitted dose curve; in most records, active means well fitted inhibition curve with a large enough effect in the signal ratio, with a control signal flat (not every such curve was filed as active); inconclusive means small, poorly fitted or top-dose-only effect, or effect the other way, or a change in a side signal; inactive means flat fitted curve, though single readings scatter; the % refers to the signal ratio. Where the call is inconclusive, the potency comes from a doubtful curve fit.
Assay: qHTS Assay for Lipid Storage Modulators in Drosophila S3 Cells
Conditions: BODIPY lipid droplet fluorescence, 18-24 h, cells fed with added oleic acid; lipid storage change, negative = inhibition: at 46.1 µM (top of the series) unless noted
Procedure, shortened: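 Drosophila S3 cells loaded with oleic acid (400 uM, as added) and compounds at several concentrations; lipid droplets imaged by 488-nm laser-scanning cytometry, 500–530 nm intensity and object ratio to cell channel. Percent activity normalized to 20 uM Triacsin C.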
On the % scale 0 is the no-effect control and ±100 the full control effect; potency means the concentration at half of the fitted maximal effect.

| Compound | lipid storage change, negative = inhibition | Potency | outcome |
| --- | --- | --- | --- |
| CCN(Cc1ccc(N(C)C)cc1)C(C)C(=O)Nc1ccc(S(=O)(=O)N2CCCC2)cc1 (configuration not stated) | inconclusive: -22.7% |  |  |
| C#CCSc1nc2ccccc2n1C(=O)c1ccc(S(=O)(=O)N2CCCCC2)cc1 | inconclusive: -14.1% |  |  |
| CCO[C@H]1OC(C(=O)N2CCN(Cc3ccc4c(c3)OCO4)CC2)=C[C@@H](c2ccc(Br)cc2)[C@@H]1CCCO |  | inconclusive: 18.4 µM [falling, single point] |  |
| O=C(NC1CCCC1)c1sc(=S)n2c1[nH]c(=O)c1ccccc12 | inconclusive: -1.27% |  |  |
| CCOC(=O)c1c(C)[nH]c(C)c1S(=O)(=O)N(C)CC(=O)N1CCN(c2ccc(OC)cc2)CC1 | inconclusive: -20% |  |  |
| NC(CO)C(=O)NNCc1ccc(O)c(O)c1O (configuration not stated) | inconclusive: 16.4% |  |  |
| CCn1nnc2cc(C(=O)NCCc3ccccc3F)ccc21 |  | inconclusive: 23.1 µM [falling, single point] |  |
| Cc1ccc(C(CC(=O)O)Nc2nc(N3CCCCC3)nc(N3CCCCC3)n2)cc1 (configuration not stated) | inconclusive: -8.76% |  |  |
| CC(=O)c1c[nH]c(C(=O)NC2CCCCCC2)c1 | inconclusive: -4.91% |  |  |
| N#Cc1cc2sc3nnc(-c4ccncc4)n3c2cc1C#N | inconclusive: -67.7% |  |  |
| Cc1nn(C)c(C)c1NC(=O)Nc1cccc(C(F)(F)F)c1 | inconclusive: -40.4% |  |  |
| CCCN1C(=S)c2ccccc2C1c1ccccc1 (configuration not stated) |  | inconclusive: 6.51 µM [falling, single point] |  |
| COc1cccc(C(=O)Nc2cc(C)nn2-c2ccccc2)c1OC |  | inconclusive: 5.17 µM [falling, single point] |  |
| CCOc1ccc(C(=O)Nc2cccc3ncccc23)cc1Cl |  | inconclusive: 0.164 µM [activator, full curve, poor fit] |  |
| CC1CCCCC1NC(=O)c1ccc(S(=O)(=O)N2CCN(C)CC2)cc1 (configuration not stated) |  | inconclusive: 7.31 µM [activator, partial curve, poor fit] |  |
| Cc1oc(-c2ccc(F)cc2)nc1CN1CCCC(C(=O)N2CCOCC2)C1 (configuration not stated) | inconclusive: 4.27% |  |  |
| COC(=O)c1cc(COc2ccc3oc(C)c(C(=O)OC)c3c2)c(C)o1 | inconclusive: 154% |  |  |
| COc1ccccc1NC(=O)CN1CCN(CC(=O)Nc2cc(C)ccc2OC)CC1 | inconclusive: 83.1% |  |  |
| O=C(NCc1ccco1)C1(c2ccc(Cl)cc2)CCCC1 | inactive: 1.83% |  |  |
| Cc1ccc(CNC(=O)CN2C(=O)c3ccccc3S2(=O)=O)cc1 |  |  | inactive [at 46.1 µM] |
| COc1ccccc1NC(=O)C(C)OC(=O)CN1C(=O)C2CC=CCC2C1=O (configuration not stated) | inconclusive: 20.7% |  |  |
| CN(C)CCNC(=O)c1cc2c(=O)n(C)c3ccccc3c2n1C | inconclusive: 0.731% |  |  |
| CCC(NC(=O)OC(C)(C)C)C(=O)Oc1ccc2c3c(c(=O)oc2c1)CCC3 (configuration not stated) | inconclusive: 9.1% |  |  |
| COc1cccc(NC(=O)CN(C)C(=O)CNC(=O)c2sc3ccccc3c2Cl)c1 | inconclusive: 11.7% |  |  |
| CC(=O)Nc1ccc(S(=O)(=O)NNC(=O)c2ccc(S(=O)(=O)N3CCCCC3)cc2)cc1 | inconclusive: 17.3% |  |  |
| CCn1c(SCC(=O)N2CCCC(C)C2)nc2c1c(=O)n(C)c(=O)n2C (configuration not stated) |  | inconclusive: 29.1 µM [activator, single point] |  |

3 neighbouring records from above, quoted:

| Compound | lipid storage change, negative = inhibition | Potency | outcome |
| --- | --- | --- | --- |
| COc1cccc(C(=O)Nc2cc(C)nn2-c2ccccc2)c1OC |  | inconclusive: 5.17 µM [falling, single point] |  |
| CCOc1ccc(C(=O)Nc2cccc3ncccc23)cc1Cl |  | inconclusive: 0.164 µM [activator, full curve, poor fit] |  |
| CC1CCCCC1NC(=O)c1ccc(S(=O)(=O)N2CCN(C)CC2)cc1 (configuration not stated) |  | inconclusive: 7.31 µM [activator, partial curve, poor fit] |  |

More entries follow.

| Compound | lipid storage change, negative = inhibition | Potency | outcome |
| --- | --- | --- | --- |
| COc1cccc(NC(=O)c2cc(-c3ccc(C)o3)nc3ccccc23)c1 | inconclusive: 32.4% [activator] [at 0.00295 µM] |  |  |
| CC(=O)Nc1ccc(Oc2nc(-c3ccccn3)nc3ccccc23)cc1 | inconclusive: -25% |  |  |
| COc1ccccc1CNC(=O)N1CCN(c2ccccc2)CC1 | inconclusive: -6.54% |  |  |
| COc1ccc(OCc2nnc(SCC(=O)NC3CC3)n2C)cc1 | inactive: 16.1% |  |  |
| Cc1ccc(OCCNC(=O)CCC(=O)N2CCOCC2)cc1 |  | inconclusive: 13 µM [activator, partial curve, poor fit] |  |
| COc1ccc(NC(=O)CN(c2cc(C)cc(C)c2)S(=O)(=O)c2c(C)noc2C)cc1OC | inconclusive: -22.7% |  |  |
| O=C(COc1ccc2c(c1)oc(=O)c1ccccc12)NC(Cc1ccc(Cl)cc1)C(=O)O (configuration not stated) | inconclusive: 10.1% |  |  |
| CC(C)Oc1ccc(Cc2cnc(=S)[nH]c2N)cc1 | inconclusive: 13.9% |  |  |
| Cc1noc(C)c1S(=O)(=O)N1CCCC(C(=O)N2CCc3ccccc3C2)C1 (configuration not stated) |  | inconclusive: 0.58 µM [activator, full curve, poor fit] |  |
| O=C(CC1Sc2ccccc2NC1=O)NCc1ccccc1 (configuration not stated) | inactive: 9.46% |  |  |
| COCCn1c(=S)[nH]c2ncccc2c1=O | inconclusive: 32.4% |  |  |
| FC(F)(F)C1=CC(c2ccc(Cl)cc2)=NCCN1 | inconclusive: 14% |  |  |
| CCOc1ccc(NC(=O)CCNS(=O)(=O)c2cccc3nonc23)cc1 | inconclusive: 38.3% |  |  |
| CCCC(C)NC(=O)c1cccc(Oc2ccccc2)c1 (configuration not stated) | inconclusive: -61.9% |  |  |
| COCCN1C(=O)N(c2cccc(C)c2)C(=O)C1CC(=O)Nc1ccc(OC)cc1 (configuration not stated) |  | inconclusive: 0.092 µM [activator, full curve, poor fit] |  |
| CCOC(=O)N1CCN(C(=S)Nc2ccccc2C)CC1 |  | inconclusive: 29.1 µM [falling, single point] |  |
| CCOC(=O)[C@@H]1[C@H]2COc3cc(OC)ccc3[C@@H]2N2C(=O)N(c3cccc(F)c3)C(=O)[C@@]12C |  | inconclusive: 20.6 µM [activator, single point] |  |
| CC(C)(C)OC(=O)N/N=C/c1c[nH]c2ccccc12 | inconclusive: -0.909% |  |  |
| COc1cc([N+](=O)[O-])ccc1NC(=O)COC(=O)c1n[nH]c2ccccc12 |  | inconclusive: 4.61 µM [activator, single point] |  |
| O=C1C=C(c2ccccc2)OC2(CCCC2)O1 | inconclusive: -45.9% |  |  |
| c1ccc(-c2n[nH]nc2-c2ccccc2)cc1 |  | inconclusive: 0.291 µM [falling, partial curve, poor fit] |  |
| CC(=O)c1cccc(N2C(=NC(=O)C3CC3)SC3CS(=O)(=O)CC32)c1 (configuration not stated) |  | inconclusive: 29.1 µM [falling, single point] |  |
| O=c1cnnc(N/N=C/c2ccc3c(c2)OCO3)[nH]1 | inconclusive: -5.63% |  |  |
| CC1CCCN(C(=O)CN(c2ccccc2)S(=O)(=O)c2ccc(F)cc2)C1 (configuration not stated) | inconclusive: 20.1% |  |  |
| O=C1CCCc2c1cnc1ncnn21 | inconclusive: -7.17% |  |  |
| Cc1c(N)cc(C(=O)N2CCOCC2)cc1[N+](=O)[O-] | inconclusive: -41.3% |  |  |

Some values from the entries so far:
`CCOC(=O)c1c(C)[nH]c(C)c1S(=O)(=O)N(C)CC(=O)N1CCN(c2ccc(OC)cc2)CC1` – lipid storage change, negative = inhibition: inconclusive: -20%
`CC(=O)Nc1ccc(S(=O)(=O)NNC(=O)c2ccc(S(=O)(=O)N3CCCCC3)cc2)cc1` – lipid storage change, negative = inhibition: inconclusive: 17.3%

Carrying on.

| Compound | lipid storage change, negative = inhibition | Potency | outcome |
| --- | --- | --- | --- |
| COc1ccc(NC(=O)c2cccc(N3C(=O)C4CCC(C)CC4C3=O)c2)c(OC)c1 (configuration not stated) | inconclusive: 45.1% |  |  |
| CCCn1c(CN2CCN(c3cccc(Cl)c3)CC2)nc2c1c(=O)n(C)c(=O)n2C | inconclusive: -38.7% |  |  |
| O=C(CC1Oc2ccccc2NC1=O)NCCCN1CCN(Cc2ccccc2)CC1 (configuration not stated) | inconclusive: -20.5% |  |  |
| OCCNc1ncnc2ccc(Br)cc12 | inconclusive: -25.7% |  |  |
| Cc1cc(C)n2cc(CSc3nnc(-c4ccccc4)o3)nc2n1 | inconclusive: 22.7% |  |  |
| CCNC(=O)COC(=O)c1cc(-c2ccco2)nc2ccccc12 | inconclusive: -49.5% |  |  |
| O=[N+]([O-])c1cc(S(=O)(=O)C(F)(F)F)ccc1N1CCN(c2ccccc2)CC1 |  | inconclusive: 14.6 µM [falling, partial curve, poor fit] |  |
| CCOc1ccc(S(=O)(=O)N2CCN(CCNS(=O)(=O)c3ccc(C)cc3)CC2)cc1 | inconclusive |  |  |
| COc1ccc(/C=C/C(=O)Nc2ccc(N3CCOCC3)cc2)cc1 | inconclusive: -0.465% |  |  |
| C(=N\Nc1ccc2ccccc2n1)/c1ccc2c(c1)OCO2 | inconclusive: 5.32% |  |  |
| COCCCNC(=O)CN1CCN(Cc2ccc(Cl)cc2)C1=O |  | inconclusive: 3.66 µM [falling, full curve] |  |
| O=C(Nc1sc2c(c1-c1nc3ccccc3[nH]1)CCCC2)C1CC1 |  | inconclusive: 2.91 µM [activator, full curve] |  |
| Cc1nc(-c2cccc(NS(C)(=O)=O)c2)cs1 | inconclusive: 178% |  |  |
| O=C(O)C1CC=CCC1C(=O)N1CCN(c2nc(-c3ccccc3Cl)c3cc(Br)ccc3n2)CC1 (configuration not stated) | inconclusive: -6.17% |  |  |
| COc1ccc(-c2csc3ncnc(N4CCN(S(=O)(=O)c5cccs5)CC4)c23)cc1 | inconclusive |  |  |
| c1ccc(CNc2nc(-c3cccs3)nc3ccccc23)cc1 |  | inconclusive: 0.82 µM [rising, partial curve] |  |
| CCCC(=O)NC(c1ccccc1)c1c(O)ccc2ccccc12 (configuration not stated) | inconclusive: -38.2% |  |  |
| CC1(C)Cc2c(sc(NC(=O)Cc3ccccc3)c2C#N)CO1 | inconclusive: 26.1% |  |  |
| CSc1ccccc1NC(=O)COc1ccc(Cl)cc1 |  | inconclusive: 0.116 µM [falling, full curve, poor fit] |  |
| COc1ccccc1N1CCN(/N=C/c2cc(OC)c(O)c(OC)c2)CC1 | inconclusive: 14% |  |  |
| Cc1c(CC(=O)N[C@@H](C)C(=O)O)c(=O)oc2cc3c(cc12)CCC(C)(C)O3 | inconclusive: 35.4% |  |  |
| Cc1ccc(S(=O)(=O)N2CCOCC2)cc1C(=O)NNC(=O)c1ccoc1C |  | inconclusive: 0.326 µM [activator, partial curve, poor fit] |  |
| COc1ccc(NC(=S)NC(=O)Cc2ccccc2)c(OC)c1 |  | inconclusive: 0.0291 µM [activator, full curve, poor fit] |  |
| CCOc1ccccc1NC(=S)NC(=O)C1CCCCC1 |  | inconclusive: 22.4 µM [activator, partial curve, poor fit] |  |
| COc1cc(-c2nnc(COC(=O)CSCC(=O)Nc3cc(C)on3)o2)cc(OC)c1OC |  | inconclusive: 29.1 µM [activator, single point] |  |

Source: PubChem BioAssay AID2685 (National Center for Advancing Translational Sciences (NCATS), 2010)
